Experimental data: article PMC7679391
These are yes or no findings as the source states them, for the method shown. In cells and extracts the contact can be indirect. Some binding calls cover weakened binding; strength is not graded here.

Amino acid sequences for entries named in this document (tags omitted).
UniProt Q9Y297: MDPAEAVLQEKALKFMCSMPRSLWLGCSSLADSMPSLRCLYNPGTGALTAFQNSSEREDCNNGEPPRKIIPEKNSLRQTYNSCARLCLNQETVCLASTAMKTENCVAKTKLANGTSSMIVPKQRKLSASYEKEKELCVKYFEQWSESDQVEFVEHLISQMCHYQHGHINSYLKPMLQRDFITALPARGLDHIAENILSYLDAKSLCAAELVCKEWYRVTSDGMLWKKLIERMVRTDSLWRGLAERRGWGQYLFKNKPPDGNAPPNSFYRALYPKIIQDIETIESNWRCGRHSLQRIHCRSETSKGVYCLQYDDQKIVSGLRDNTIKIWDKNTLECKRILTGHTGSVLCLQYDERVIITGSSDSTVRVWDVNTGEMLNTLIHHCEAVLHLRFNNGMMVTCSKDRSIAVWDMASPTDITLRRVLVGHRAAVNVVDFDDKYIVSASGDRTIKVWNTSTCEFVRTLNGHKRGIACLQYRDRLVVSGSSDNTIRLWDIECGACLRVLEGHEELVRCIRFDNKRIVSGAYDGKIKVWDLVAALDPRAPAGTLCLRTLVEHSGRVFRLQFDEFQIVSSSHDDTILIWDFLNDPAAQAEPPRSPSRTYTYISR
UniProt Q15717: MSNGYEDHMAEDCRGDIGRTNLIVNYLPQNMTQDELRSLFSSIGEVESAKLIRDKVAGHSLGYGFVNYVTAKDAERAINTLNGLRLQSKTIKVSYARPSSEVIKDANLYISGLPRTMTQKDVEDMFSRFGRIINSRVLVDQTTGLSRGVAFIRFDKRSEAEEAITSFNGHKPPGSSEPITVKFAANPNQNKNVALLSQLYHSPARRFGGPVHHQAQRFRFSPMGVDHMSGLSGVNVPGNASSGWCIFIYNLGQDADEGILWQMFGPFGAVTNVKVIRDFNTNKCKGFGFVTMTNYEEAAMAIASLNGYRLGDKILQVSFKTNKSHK

How the values were obtained:
[1] = target: ubiquitin E3 ligase BTRC (β-TrCP1) (human (endogenous in SW-13)) (UniProt Q9Y297); assay: co-IP; endogenous proteins of SW-13 cells transfected with ASB16-AS1 siRNA1 or siRNA2; immunoprecipitation with either anti-HuR or anti-BTRC antibody, western blot for the other protein; knock-down of lncRNA ASB16-AS1 reduces the co-precipitate
[2] = target: Human antigen R (HuR) (human (endogenous in SW-13)) (UniProt Q15717); assay: as above

binding [1] | binding [2] | Substance
binds | – | Human antigen R (HuR) (from UniProt Q15717 1-326)
– | binds | ubiquitin E3 ligase BTRC (β-TrCP1) (from UniProt Q9Y297 1-605)
